Measurements as given in patent publication US10793863.
These are yes or no findings as the source states them, for the method shown. In cells and extracts the contact can be indirect. Some binding calls cover weakened binding; strength is not graded here. Sequences can lack the tags named with a protein.

How the values were obtained:
[1] = biological target: T1, CfbD from Methanosarcina acetivorans C2A, untagged (Methanosarcina acetivorans C2A) (UniProt Q8TJZ8); experiment: co-expression in E. coli and co-purification by Ni-IMAC through the His6-tag on CfbC
T1 sequence: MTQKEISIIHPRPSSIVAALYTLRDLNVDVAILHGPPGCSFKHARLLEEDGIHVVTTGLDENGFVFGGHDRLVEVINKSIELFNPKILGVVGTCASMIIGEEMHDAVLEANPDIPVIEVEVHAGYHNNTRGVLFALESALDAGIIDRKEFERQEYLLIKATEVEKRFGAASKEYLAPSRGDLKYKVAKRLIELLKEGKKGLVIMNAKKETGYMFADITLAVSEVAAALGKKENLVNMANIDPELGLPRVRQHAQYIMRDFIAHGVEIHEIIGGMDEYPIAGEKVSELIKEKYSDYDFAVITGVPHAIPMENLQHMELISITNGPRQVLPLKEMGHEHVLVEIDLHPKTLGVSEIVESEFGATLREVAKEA

[2] = biological target: T1, CfbD from Methanosarcina acetivorans C2A, untagged (Methanosarcina acetivorans C2A); experiment: purified complex (Ni-IMAC co-purification) used in enzyme assays

binding [1]: binds
binding [2]: binds
B1: CfbC from Methanosarcina acetivorans C2A with cleavable N-terminal His6-tag (enzyme, not shown: small tags and cut ends)
chain: MKKQKIVAIYGKGGIGKSSTASNVAAACAEAGKKVMIIGCDPKSDSSITLLRGKRIPTILDLLREGVDVQEKDVVFEGYAGVKCVEAGGPEPGIGCAGRGIIVAIQKLKSISGDLLKEQDLIIYDVPGDIVCGGFVAPVRKGYVNEAYVLTSGEYMPLYAANNICKGLSKIGMPLSGVICNSRNASREEEIVRKFSEEIGSQLMAFIPKRQIVQDCEREGYSVMEKAPDSDIAEVYRQLGKSILTNEKKVMASHLSDERLREMTK
